The record followed here is patent US11135186B2, “Regulators of the endoplasmic reticulum proteostasis network” (The Scripps Research Institute, priority 2015, dated 2021).

This data set can be described thus: Promiscuity: number of screening assays in which the compound was found active.

Consider `O=[N+]([O-])c1ccc(N/N=C/c2ccccc2O)cc1` [Compound 263], for which the “Promiscuity (number of screening assays in which the compound was found active)” value (“Promiscuity” for short) is given as 1 out of 31.

For `Cc1ccc(O)c(NC(=O)CCc2ccccc2)c1` [Compound 147], the “Promiscuity” value is 1 out of 32.

In the case of `CCCc1cc(C(=O)Nc2cc(C)ccc2O)no1` [Compound 145], the “Promiscuity” value is 1 out of 31.

In the case of `O=C1N/C(=C\c2ccc(O)cc2)C(=O)N1c1cccc(Cl)c1` [Compound 238], the “Promiscuity” value is on record as 2 out of 31.

Turning to `Cc1ccc(O)c(N/C=C/C(=O)c2ccc(F)cc2)c1` [Compound 132], the “Promiscuity” value is 2 out of 32.

`Cc1cc(C)c(OCC(=O)N/N=C/c2ccc(Cl)c(O)c2)c(Br)c1` [Compound 258]: the “Promiscuity” value was 1 out of 31.

Consider `CCCCNNC(=O)c1ccc(Br)cc1` [Compound 5], for which the “Promiscuity” value is on record as 1 out of 31.
